doi:10.1101/197848
Changes are numbered by the printed parent chain. Names and notes keep the numbering of the source. Results are given in words; binding and its absence hold for the method and conditions named. For some assays here: In cells and extracts the contact can be indirect. Some entries that bind do so weakly or less than the wild type. Blank lines part the entries; values can stand above or below the binder they belong to.

How the values were obtained:
[1] = biological target: T1, yeast 2C smc3AAA (Smc3E570C S1043C R665A K668A R669A) (S. cerevisiae) (UniProt P47037); assay: cross-linking
T1 sequence: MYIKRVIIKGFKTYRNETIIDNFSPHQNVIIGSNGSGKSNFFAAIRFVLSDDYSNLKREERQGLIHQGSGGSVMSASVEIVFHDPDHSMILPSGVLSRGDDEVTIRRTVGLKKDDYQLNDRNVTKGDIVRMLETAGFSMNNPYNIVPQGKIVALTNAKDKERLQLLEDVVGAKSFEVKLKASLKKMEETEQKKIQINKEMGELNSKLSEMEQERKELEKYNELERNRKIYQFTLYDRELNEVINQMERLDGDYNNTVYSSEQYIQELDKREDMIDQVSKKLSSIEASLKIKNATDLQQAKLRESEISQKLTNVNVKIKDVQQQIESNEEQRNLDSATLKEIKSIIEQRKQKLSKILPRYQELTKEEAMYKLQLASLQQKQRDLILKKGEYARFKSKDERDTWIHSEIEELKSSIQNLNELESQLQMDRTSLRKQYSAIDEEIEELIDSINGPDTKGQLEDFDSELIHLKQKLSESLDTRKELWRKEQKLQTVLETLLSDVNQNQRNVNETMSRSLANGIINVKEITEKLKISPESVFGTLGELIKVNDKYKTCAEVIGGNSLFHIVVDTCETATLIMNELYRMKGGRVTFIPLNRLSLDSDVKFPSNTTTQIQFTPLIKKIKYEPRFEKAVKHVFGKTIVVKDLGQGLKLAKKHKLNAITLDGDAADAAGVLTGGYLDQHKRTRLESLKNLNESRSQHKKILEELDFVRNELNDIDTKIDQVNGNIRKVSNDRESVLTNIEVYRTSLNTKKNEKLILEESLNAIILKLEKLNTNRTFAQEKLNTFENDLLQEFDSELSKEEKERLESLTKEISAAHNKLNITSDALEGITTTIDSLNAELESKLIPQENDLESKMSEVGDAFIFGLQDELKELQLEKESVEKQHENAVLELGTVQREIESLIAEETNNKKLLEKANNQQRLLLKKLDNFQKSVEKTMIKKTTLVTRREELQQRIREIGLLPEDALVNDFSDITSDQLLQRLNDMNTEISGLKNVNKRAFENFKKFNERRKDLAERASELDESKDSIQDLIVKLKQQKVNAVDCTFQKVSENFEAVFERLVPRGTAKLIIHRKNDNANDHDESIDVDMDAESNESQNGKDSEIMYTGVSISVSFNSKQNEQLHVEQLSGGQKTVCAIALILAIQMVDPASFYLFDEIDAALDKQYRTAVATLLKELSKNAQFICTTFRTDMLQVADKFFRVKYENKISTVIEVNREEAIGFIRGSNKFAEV

[2] = biological target: T2, yeast 2C Smc3 (Smc3E570C S1043C) (S. cerevisiae) (UniProt P47037); assay: cross-linking
T2 sequence: T1 sequence with A665R, A668K, A669R

[3] = biological target: T3, yeast Smc3 (subunit of the purified tetramers) (S. cerevisiae) (UniProt P47037); assay: co-purification
T3 sequence: T1 sequence with C570E, A665R, A668K, A669R, C1043S

B2: yeast 2C Smc1DDD (Smc1G22C K639C K554D K650D K661D) (protein, UniProt P32908 1-1225)
chain: MGRLVGLELSNFKSYRGVTKVCFGESNFTSIIGPNGSGKSNMMDAISFVLGVRSNHLRSNILKDLIYRGVLNDENSDDYDNEGAASSNPQSAYVKAFYQKGNKLVELMRIISRNGDTSYKIDGKTVSYKDYSIFLENENILIKAKNFLVFQGDVEQIAAQSPVELSRMFEEVSGSIQYKKEYEELKEKIEKLSKSATESIKNRRRIHGELKTYKEGINKNEEYRKQLDKKNELQKFQALWQLYHLEQQKEELTDKLSALNSEISSLKGKINNEMKSLQRSKSSFVKESAVISKQKSKLDYIFKDKEKLVSDLRLIKVPQQAAGKRISHIEKRIESLQKDLQRQKTYVERFETQLKVVTRSKEAFEEEIKQSARNYDKFKLNENDLKTYNCLHEKYLTEGGSILEEKIAVLNNDKREIQEELERFNKRADISKRRITEELSITGEKLDTQLNDLRVSLNEKNALHTERLHELKKLQSDIESANNQEYDLNFKLRETLVKIDDLSANQRETMKERKLRENIAMLKRFFPGVKGLVHDLCHPKKEKYGLAVSTILGDNFDSVIVENLTVAQECIAFLKKQRAGTASFIPLDTIETELPTLSLPDSQDYILSINAIDYEPEYEKAMQYVCGDSIICNTLNIACDLKWKKGIRGDLVTIEGALIHDAGLMTGGISGDANNRWDKEEYQSLMSLKDKLLIQIDELSNGQRSNSIRAREVENSVSLLNSDIANLRTQVTQQKRSLDENRLEIKYHNDLIEKEIQPKITELKKKLDDLENTKDNLVKEKEALQNNIFKEFTSKIGFTIKEYENHSGELMRQQSKELQQLQKQILTVENKLQFETDRLSTTQRRYEKAQKDLENAQVEMKSLEEQEYAIEMKIGSIESKLEEHKNHLDELQKKFVTKQSELNSSEDILEDMNSNLQVLKRERDGIKEDIEKFDLERVTALKNCKISNINIPISSETTIDDLPISSTDNEAITISNSIDINYKGLPKKYKENNTDSARKELEQKIHEVEEILNELQPNARALERYDEAEGRFEVINNETEQLKAEEKKILNQFLKIKKKRKELFEKTFDYVSDHLDAIYRELTKNPNSNVELAGGNASLTIEDEDEPFNAGIKYHATPPLKRFKDMEYLSGGEKTVAALALLFAINSYQPSPFFVLDEVDAALDITNVQRIAAYIRRHRNPDLQFIVISLKNTMFEKSDALVGVYRQQQENSSKIITLDLSNYAE
binding [2]: binds

B4: yeast Smc1 (subunit of the purified wild type tetramer) (protein, UniProt P32908 1-1225)
chain: B2 chain with C22G, D554K, C639K, D650K, D661K
binding [3]: binds

B5: yeast smc1DDD (Smc1 K554D K650D K661D, subunit of the purified DDD mutant tetramer) (protein, UniProt P32908 1-1225)
chain: B2 chain with C22G, C639K
binding [3]: binds

Next, values leading:

binding [1]: binds
B1: yeast 2C smc1DD (Smc1G22C K639C K554D K661D) (protein, UniProt P32908 1-1225)
chain: B2 chain with D650K

binding [2]: binds
B3: yeast 2C Smc1 (Smc1G22C K639C) (protein, UniProt P32908 1-1225)
chain: B2 chain with D554K, D650K, D661K
